Taken from: PubChem BioAssay AID1508597 (Cure First, 2020)

Aim: 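Genes whose silencing sensitises or protects ovarian cancer cells against rucaparib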 (primary screen)
Cells: human ovarian carcinoma lines grown from tumours: OCI-P5x (papillary serous) and OCI-C5x (clear cell)
Reagent: siRNA pool against human genes, 1.25 pmol siRNA per well
Time to read-out: 72 h or 96 h, depending on the cell culture
Conditions: rucaparib 20 µM (about IC30) or vehicle, present until read-out
Rucaparib or vehicle: Vehicle
Cell line: OCI-P5x (serous)
Read-out: 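Luminescent ATP-based viability assay read 72 or 96 h after transfection, depending on culture, given as normalised percent viability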
Direction: viability, normalised: higher = more viable cells remaining
Active means: 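Active when normalised viability falls below 80 percent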
Calls: active = viability under 80%; inactive = viability 80% or more
Shown is an unselected part of the about 2,100 reagents, in one setting of the screen. 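Calls flag viability under 80% in either arm, not effects specific to rucaparib; the reference for percent is not stated.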 Unmarked entries are inactive. The record does not give: the 100% reference.

{"Target gene":"TCF20","technical replicate":"1","viability, normalised (%)":"37.9 (active)"}
{"Target gene":"TCF20","technical replicate":"2","viability, normalised (%)":"53.8 (active)"}
{"Target gene":"TCF20","technical replicate":"3","viability, normalised (%)":"59.3 (active)"}
{"Target gene":"HUNK","technical replicate":"1","viability, normalised (%)":81.8}
{"Target gene":"HUNK","technical replicate":"2","viability, normalised (%)":88.7}
{"Target gene":"HUNK","technical replicate":"3","viability, normalised (%)":"40.6 (active)"}
{"Target gene":"NCOR2","technical replicate":"1","viability, normalised (%)":"41 (active)"}
{"Target gene":"NCOR2","technical replicate":"2","viability, normalised (%)":"47.8 (active)"}
{"Target gene":"NCOR2","technical replicate":"3","viability, normalised (%)":"51.5 (active)"}
{"Target gene":"CLDN14","technical replicate":"1","viability, normalised (%)":83.3}
{"Target gene":"CLDN14","technical replicate":"2","viability, normalised (%)":"57.2 (active)"}
{"Target gene":"CLDN14","technical replicate":"3","viability, normalised (%)":"52.7 (active)"}

Active calls, among the entries above:
{"Target gene":"TCF20","technical replicate":"1","viability, normalised (%)":"37.9 (active)"}
{"Target gene":"TCF20","technical replicate":"2","viability, normalised (%)":"53.8 (active)"}
{"Target gene":"TCF20","technical replicate":"3","viability, normalised (%)":"59.3 (active)"}
{"Target gene":"HUNK","technical replicate":"3","viability, normalised (%)":"40.6 (active)"}
{"Target gene":"NCOR2","technical replicate":"1","viability, normalised (%)":"41 (active)"}
{"Target gene":"NCOR2","technical replicate":"2","viability, normalised (%)":"47.8 (active)"}
{"Target gene":"NCOR2","technical replicate":"3","viability, normalised (%)":"51.5 (active)"}
{"Target gene":"CLDN14","technical replicate":"2","viability, normalised (%)":"57.2 (active)"}
{"Target gene":"CLDN14","technical replicate":"3","viability, normalised (%)":"52.7 (active)"}

The list goes on.
{"Target gene":"CDK16","technical replicate":"1","viability, normalised (%)":"78.9 (active)"}
{"Target gene":"CDK16","technical replicate":"2","viability, normalised (%)":"67.8 (active)"}
{"Target gene":"CDK16","technical replicate":"3","viability, normalised (%)":"77.3 (active)"}
{"Target gene":"KDM5A","technical replicate":"1","viability, normalised (%)":"59.6 (active)"}
{"Target gene":"KDM5A","technical replicate":"2","viability, normalised (%)":"54.2 (active)"}
{"Target gene":"KDM5A","technical replicate":"3","viability, normalised (%)":"59.6 (active)"}
{"Target gene":"MPP2","technical replicate":"1","viability, normalised (%)":97.1}
{"Target gene":"MPP2","technical replicate":"2","viability, normalised (%)":101}
{"Target gene":"MPP2","technical replicate":"3","viability, normalised (%)":93.5}
